Test: peptide made by a vendor
Settings: whole synthesis

Q: For Ac-CDGAVQPDGGQPAVRNER-NH2, which “purity (crude or final not stated)” value is on record?
A: purity more or about 95%

Source: US20020160012A1 (priority 2000, published 2002)
